Measured values: publication doi:10.1101/2021.09.22.461318
Results are given in words; binding and its absence hold for the method and conditions named. Binding seen in cells or lysates may run through a third protein. Some results given as binding are weak or reduced against the parent protein; the word gives no strength.

By UniProt entry, the sequences of proteins in these tests, tags left out. Where a name states a change or a piece, a line headed by the entry shows the natural chain unless it says otherwise. Chains listed by the source or under a name are the forms on record and can include a tag or linker.
N-terminal FLAG-tagged mouse MINK1 (misshapen-like kinase 1) (Q9JM52, form named): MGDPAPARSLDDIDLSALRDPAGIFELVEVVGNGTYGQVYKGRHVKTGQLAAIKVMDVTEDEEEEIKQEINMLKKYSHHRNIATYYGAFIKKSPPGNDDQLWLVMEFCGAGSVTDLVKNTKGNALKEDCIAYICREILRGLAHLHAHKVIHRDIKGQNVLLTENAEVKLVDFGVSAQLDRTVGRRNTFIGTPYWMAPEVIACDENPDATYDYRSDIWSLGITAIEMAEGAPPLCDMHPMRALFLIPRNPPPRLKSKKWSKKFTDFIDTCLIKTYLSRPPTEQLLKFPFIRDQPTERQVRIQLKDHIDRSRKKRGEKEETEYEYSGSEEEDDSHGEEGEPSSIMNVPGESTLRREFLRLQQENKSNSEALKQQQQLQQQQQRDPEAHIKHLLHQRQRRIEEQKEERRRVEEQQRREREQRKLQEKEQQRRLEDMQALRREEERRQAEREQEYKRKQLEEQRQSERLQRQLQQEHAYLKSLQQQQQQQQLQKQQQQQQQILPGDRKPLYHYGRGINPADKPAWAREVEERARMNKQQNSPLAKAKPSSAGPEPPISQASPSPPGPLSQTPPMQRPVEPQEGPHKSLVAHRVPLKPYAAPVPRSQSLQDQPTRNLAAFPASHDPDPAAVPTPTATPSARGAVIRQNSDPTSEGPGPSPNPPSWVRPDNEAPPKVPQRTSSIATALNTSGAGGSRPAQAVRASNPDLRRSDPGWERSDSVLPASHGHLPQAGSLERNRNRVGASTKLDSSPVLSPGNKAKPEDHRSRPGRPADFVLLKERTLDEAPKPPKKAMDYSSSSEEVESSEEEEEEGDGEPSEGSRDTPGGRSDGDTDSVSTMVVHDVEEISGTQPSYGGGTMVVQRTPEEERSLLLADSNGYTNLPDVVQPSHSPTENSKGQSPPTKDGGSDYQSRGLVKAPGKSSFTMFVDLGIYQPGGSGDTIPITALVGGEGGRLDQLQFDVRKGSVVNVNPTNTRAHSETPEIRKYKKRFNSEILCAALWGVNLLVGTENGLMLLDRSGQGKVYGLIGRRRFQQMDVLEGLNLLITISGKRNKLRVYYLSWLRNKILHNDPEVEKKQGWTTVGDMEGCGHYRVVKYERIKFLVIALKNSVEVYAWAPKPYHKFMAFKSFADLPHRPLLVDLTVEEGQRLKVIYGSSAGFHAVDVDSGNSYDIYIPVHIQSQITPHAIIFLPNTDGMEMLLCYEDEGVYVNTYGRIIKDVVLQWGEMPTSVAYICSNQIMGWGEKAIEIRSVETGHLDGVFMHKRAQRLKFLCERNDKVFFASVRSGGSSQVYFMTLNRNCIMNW
UniProt P67871: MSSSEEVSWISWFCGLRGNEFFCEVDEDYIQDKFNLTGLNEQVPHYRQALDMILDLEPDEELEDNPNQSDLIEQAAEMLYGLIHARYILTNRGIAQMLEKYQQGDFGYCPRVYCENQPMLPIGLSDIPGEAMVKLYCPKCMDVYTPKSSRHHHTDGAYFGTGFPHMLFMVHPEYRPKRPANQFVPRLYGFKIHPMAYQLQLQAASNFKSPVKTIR

Tests used:
Assay in all cases: co-IP
[1] = molecular target: N-terminal FLAG-tagged mouse MINK1 (misshapen-like kinase 1) (mouse) (UniProt Q9JM52)
[2] = molecular target: N-terminal FLAG-tagged mouse NRK (NCK-interacting kinase (NIK)-related kinase) (mouse) (UniProt Q9R0G8)
[3] = molecular target: T1, mNRK^1-564 (amino acids 1-564 of mouse NRK) (mouse) (UniProt Q9R0G8)
T1 sequence: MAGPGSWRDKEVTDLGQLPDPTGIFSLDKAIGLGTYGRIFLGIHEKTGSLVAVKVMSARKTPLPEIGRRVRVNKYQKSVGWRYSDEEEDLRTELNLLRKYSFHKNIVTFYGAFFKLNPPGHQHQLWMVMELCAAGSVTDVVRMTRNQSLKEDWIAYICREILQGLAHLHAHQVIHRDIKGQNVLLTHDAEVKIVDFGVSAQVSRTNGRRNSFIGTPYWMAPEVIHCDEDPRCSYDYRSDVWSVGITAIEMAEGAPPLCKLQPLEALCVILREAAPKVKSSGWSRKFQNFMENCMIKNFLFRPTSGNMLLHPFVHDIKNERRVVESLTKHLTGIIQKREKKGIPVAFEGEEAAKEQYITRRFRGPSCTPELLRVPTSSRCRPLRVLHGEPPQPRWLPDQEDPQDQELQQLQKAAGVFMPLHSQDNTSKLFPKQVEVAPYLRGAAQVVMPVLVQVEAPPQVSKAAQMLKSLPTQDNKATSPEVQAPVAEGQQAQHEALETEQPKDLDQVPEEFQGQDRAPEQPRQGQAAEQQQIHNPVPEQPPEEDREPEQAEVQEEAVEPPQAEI

[4] = molecular target: T2, mNRK^1-868 (amino acids 1-868 of mouse NRK) (mouse) (UniProt Q9R0G8)
T2 sequence: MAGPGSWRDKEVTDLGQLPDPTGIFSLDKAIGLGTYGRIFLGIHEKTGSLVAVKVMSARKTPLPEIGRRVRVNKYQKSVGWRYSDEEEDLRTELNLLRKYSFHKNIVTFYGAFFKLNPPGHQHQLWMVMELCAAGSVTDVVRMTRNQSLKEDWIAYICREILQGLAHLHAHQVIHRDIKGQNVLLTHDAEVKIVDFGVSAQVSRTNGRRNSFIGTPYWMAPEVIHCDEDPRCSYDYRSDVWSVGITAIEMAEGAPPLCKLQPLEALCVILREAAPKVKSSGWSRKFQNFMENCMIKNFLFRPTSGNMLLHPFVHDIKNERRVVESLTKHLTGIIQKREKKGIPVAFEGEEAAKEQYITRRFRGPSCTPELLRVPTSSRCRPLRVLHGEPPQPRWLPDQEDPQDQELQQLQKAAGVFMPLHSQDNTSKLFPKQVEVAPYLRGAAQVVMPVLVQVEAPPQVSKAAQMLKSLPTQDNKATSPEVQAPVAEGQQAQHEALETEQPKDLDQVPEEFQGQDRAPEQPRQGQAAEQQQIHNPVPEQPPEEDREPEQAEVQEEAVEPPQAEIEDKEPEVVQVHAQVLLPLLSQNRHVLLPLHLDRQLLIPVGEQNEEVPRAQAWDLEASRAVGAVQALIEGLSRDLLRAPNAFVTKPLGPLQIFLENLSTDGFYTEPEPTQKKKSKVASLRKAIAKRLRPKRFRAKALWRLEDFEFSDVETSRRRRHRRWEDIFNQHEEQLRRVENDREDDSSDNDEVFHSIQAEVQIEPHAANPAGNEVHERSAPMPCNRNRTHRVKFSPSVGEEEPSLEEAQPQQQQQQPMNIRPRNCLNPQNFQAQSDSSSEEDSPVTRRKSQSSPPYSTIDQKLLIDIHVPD

[5] = molecular target: T3, mNRK^565-1455 (amino acids 565-1455 of mouse NRK) (mouse) (UniProt Q9R0G8)
T3 sequence: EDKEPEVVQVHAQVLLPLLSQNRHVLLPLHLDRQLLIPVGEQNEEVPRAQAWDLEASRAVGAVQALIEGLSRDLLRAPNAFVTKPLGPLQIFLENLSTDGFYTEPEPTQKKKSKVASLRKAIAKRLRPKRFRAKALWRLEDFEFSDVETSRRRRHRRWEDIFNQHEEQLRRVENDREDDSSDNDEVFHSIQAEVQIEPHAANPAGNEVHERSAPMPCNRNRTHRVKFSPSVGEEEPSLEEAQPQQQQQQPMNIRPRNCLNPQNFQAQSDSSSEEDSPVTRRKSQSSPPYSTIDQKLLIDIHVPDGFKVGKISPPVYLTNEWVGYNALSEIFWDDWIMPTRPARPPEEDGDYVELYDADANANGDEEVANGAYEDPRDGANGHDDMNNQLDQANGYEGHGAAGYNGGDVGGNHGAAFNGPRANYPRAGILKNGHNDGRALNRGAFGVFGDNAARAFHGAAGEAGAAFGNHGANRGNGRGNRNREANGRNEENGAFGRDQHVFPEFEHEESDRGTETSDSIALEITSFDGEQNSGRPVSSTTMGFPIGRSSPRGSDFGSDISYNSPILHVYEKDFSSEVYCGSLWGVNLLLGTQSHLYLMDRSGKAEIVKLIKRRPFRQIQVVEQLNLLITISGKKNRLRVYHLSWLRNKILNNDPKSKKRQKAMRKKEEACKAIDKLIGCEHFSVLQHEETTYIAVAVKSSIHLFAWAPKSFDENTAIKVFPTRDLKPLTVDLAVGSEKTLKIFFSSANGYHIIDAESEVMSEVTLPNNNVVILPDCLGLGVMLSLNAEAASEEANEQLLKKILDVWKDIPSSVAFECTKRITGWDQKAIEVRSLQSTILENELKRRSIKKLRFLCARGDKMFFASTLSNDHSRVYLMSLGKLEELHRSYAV

[6] = molecular target: T4, mNRK^869-1455 (amino acids 869-1455 of mouse NRK) (mouse) (UniProt Q9R0G8)
T4 sequence: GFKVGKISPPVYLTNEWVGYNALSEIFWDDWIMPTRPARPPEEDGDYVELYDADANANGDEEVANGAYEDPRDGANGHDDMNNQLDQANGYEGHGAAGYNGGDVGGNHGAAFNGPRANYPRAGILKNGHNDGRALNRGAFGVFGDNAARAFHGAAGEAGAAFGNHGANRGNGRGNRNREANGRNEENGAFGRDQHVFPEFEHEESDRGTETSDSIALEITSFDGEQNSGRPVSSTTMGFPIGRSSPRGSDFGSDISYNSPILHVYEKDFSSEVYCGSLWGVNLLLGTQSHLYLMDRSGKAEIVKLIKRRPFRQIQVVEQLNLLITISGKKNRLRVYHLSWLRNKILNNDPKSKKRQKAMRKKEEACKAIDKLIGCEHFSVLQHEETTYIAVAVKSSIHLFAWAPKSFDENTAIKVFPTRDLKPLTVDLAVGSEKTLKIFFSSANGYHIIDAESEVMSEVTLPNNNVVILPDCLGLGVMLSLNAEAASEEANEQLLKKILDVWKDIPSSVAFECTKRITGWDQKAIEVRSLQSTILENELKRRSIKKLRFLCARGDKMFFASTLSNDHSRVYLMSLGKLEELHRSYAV

[7] = molecular target: T5, mNRK^Δ565-868 (mouse NRK mutant lacking aa 565-868) (mouse) (UniProt Q9R0G8)
T5 sequence: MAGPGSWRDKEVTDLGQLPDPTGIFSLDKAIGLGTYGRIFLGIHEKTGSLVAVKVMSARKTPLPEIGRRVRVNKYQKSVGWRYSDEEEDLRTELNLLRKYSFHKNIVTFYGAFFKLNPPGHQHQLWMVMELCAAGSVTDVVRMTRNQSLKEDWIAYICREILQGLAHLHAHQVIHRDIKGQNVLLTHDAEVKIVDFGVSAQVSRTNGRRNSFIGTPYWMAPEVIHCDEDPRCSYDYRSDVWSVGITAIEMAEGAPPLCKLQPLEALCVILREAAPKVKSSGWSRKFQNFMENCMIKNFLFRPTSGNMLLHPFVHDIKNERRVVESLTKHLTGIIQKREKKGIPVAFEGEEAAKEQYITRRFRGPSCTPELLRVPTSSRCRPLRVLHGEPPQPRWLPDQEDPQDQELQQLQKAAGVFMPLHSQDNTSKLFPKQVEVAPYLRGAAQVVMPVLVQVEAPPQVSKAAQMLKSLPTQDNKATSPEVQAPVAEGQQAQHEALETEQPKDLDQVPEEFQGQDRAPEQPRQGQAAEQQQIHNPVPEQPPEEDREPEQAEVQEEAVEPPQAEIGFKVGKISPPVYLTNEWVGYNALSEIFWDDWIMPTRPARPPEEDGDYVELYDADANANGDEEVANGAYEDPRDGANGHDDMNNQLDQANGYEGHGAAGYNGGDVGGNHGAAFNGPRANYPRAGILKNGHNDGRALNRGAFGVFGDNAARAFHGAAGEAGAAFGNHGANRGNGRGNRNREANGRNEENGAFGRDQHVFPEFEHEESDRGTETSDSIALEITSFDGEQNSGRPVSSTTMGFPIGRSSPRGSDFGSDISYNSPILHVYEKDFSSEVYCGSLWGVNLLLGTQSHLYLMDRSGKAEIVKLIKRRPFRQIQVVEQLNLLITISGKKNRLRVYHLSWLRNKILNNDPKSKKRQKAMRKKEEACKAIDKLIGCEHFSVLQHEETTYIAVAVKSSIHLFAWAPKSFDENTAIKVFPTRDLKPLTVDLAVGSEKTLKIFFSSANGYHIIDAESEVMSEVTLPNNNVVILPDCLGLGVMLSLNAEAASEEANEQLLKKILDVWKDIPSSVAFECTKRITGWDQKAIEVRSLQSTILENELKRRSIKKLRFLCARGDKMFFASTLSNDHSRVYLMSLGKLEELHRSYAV

[8] = molecular target: T6, mNRK^Δ832-868 (mouse NRK mutant lacking aa 832-868) (mouse) (UniProt Q9R0G8)
T6 sequence: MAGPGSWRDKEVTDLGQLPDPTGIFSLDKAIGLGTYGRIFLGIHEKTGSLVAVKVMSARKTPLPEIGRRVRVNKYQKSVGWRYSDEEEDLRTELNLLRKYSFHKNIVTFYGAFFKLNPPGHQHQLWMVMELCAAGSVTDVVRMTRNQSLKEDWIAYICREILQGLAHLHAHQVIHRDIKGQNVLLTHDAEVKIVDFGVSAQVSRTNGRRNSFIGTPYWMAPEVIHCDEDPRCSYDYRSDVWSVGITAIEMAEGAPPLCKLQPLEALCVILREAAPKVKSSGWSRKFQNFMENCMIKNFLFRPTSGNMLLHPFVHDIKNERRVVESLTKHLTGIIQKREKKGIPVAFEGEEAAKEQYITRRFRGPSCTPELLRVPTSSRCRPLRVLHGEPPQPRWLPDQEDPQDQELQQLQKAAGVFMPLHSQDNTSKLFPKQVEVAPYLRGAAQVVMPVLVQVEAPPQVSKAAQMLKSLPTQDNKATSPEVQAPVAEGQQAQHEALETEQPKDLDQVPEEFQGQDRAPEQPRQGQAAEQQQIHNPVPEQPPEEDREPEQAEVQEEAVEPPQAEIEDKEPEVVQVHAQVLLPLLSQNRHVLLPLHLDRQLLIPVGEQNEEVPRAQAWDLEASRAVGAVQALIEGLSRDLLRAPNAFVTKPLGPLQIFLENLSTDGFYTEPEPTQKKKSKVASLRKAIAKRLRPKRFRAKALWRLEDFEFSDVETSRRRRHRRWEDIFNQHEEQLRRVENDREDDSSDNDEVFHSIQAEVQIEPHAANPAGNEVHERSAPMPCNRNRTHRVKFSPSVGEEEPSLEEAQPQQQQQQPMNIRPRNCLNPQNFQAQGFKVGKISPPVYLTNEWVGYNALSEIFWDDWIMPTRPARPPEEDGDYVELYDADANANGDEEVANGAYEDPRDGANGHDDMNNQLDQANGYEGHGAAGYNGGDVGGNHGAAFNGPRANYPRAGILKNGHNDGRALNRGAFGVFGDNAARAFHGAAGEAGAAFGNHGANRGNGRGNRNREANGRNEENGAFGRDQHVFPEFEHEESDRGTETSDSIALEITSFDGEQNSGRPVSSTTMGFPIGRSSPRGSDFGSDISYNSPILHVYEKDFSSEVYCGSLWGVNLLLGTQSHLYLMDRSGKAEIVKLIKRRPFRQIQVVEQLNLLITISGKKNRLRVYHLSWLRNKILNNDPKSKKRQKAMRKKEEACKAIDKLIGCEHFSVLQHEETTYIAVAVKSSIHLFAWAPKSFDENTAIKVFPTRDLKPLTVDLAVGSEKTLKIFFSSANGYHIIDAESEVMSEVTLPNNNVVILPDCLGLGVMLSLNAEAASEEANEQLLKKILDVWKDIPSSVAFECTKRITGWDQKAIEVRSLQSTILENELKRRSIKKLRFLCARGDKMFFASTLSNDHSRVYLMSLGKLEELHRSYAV

binding [1]: no binding | binding [2]: binds | binding [3]: no binding | binding [4]: binds | binding [5]: binds | binding [6]: no binding | binding [7]: no binding | binding [8]: binds
Substance: N-terminal myc-tagged mouse CK2β (from UniProt P67871 1-215)
